PubChem BioAssay AID1159584 – Peter MacCallum Cancer Centre, 2016
Aim: 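Genes that CDH1-null MCF10A cells selectively depend on to survive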 (primary screen). System: human MCF10A breast epithelial cells, parental and CDH1-null. Knock-down reagent: siRNA against human genes. Detection: 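ATP luminescence (CellTiter-Glo) viability per line relative to mean mock wells over all plates, and the ratio of CDH1-null to parental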. Direction: CDH1-null / parental viability ratio: higher = CDH1-null cells survive relatively better than parental.
The deposit covers about 18,000 reagents; shown is a part drawn at random. Further read-outs or replicates are left out here. The record does not give: the amount of reagent, the time to read-out.

For NIP7 (nucleolar pre-rRNA processing protein NIP7), what does the deposit list?
CDH1-null / parental viability ratio: 1.15

What did the screen give for RAB2B (RAB2B, member RAS oncogene family)?
CDH1-null / parental viability ratio: 0.72

With AGBL4 (AGBL carboxypeptidase 4), what was measured?
CDH1-null / parental viability ratio: 0.99

For VPS37B (VPS37B subunit of ESCRT-I), what does the deposit list?
CDH1-null / parental viability ratio: 0.77

What did the screen give for UCHL5 (ubiquitin C-terminal hydrolase L5)?
CDH1-null / parental viability ratio: 1.1

With EXOC3L4 (exocyst complex component 3 like 4), how do the results read?
CDH1-null / parental viability ratio: 0.8

With PCDHA2 (protocadherin alpha 2), what does the deposit list?
CDH1-null / parental viability ratio: 1.27

With CCND2 (cyclin D2), what does the deposit list?
CDH1-null / parental viability ratio: 0.72

For CA10 (carbonic anhydrase 10 (inactive)), how do the results read?
CDH1-null / parental viability ratio: 0.98

What is on record for VSIG1 (V-set and immunoglobulin domain containing 1)?
CDH1-null / parental viability ratio: 1.06

Which result is listed for UBE2E3 (ubiquitin conjugating enzyme E2 E3)?
CDH1-null / parental viability ratio: 0.95

How did the screen score PHACTR4 (phosphatase and actin regulator 4)?
CDH1-null / parental viability ratio: 1.16

With MTURN (maturin, neural progenitor differentiation regulator homolog), what was measured?
CDH1-null / parental viability ratio: 0.93

What did the screen give for DCST1 (DC-STAMP domain containing 1)?
CDH1-null / parental viability ratio: 1.13

For ZSCAN16 (zinc finger and SCAN domain containing 16), what does the deposit list?
CDH1-null / parental viability ratio: 0.91

With ARHGAP25 (Rho GTPase activating protein 25), what does the deposit list?
CDH1-null / parental viability ratio: 0.74

With RNF115 (ring finger protein 115), how do the results read?
CDH1-null / parental viability ratio: 0.87

For SQSTM1 (sequestosome 1), what was measured?
CDH1-null / parental viability ratio: 1.06

For DNAJC3 (DnaJ heat shock protein family (Hsp40) member C3), what was measured?
CDH1-null / parental viability ratio: 0.99

With GATA1 (GATA binding protein 1), how do the results read?
CDH1-null / parental viability ratio: 0.54

For MMP2 (matrix metallopeptidase 2), what was measured?
CDH1-null / parental viability ratio: 1.14

With BMPER (BMP binding endothelial regulator), what does the deposit list?
CDH1-null / parental viability ratio: 1.11

A stretch from the list above, as a working copy:
UCHL5 (ubiquitin C-terminal hydrolase L5) → CDH1-null / parental viability ratio = 1.1
EXOC3L4 (exocyst complex component 3 like 4) → CDH1-null / parental viability ratio = 0.8
PCDHA2 (protocadherin alpha 2) → CDH1-null / parental viability ratio = 1.27
CCND2 (cyclin D2) → CDH1-null / parental viability ratio = 0.72
CA10 (carbonic anhydrase 10 (inactive)) → CDH1-null / parental viability ratio = 0.98

Next results follow.
What is on record for NUMB (NUMB endocytic adaptor protein)?
CDH1-null / parental viability ratio: 1.44

For WDR5B (WD repeat domain 5B), how do the results read?
CDH1-null / parental viability ratio: 0.84

How did the screen score PPFIA3 (PPFI scaffold protein A3)?
CDH1-null / parental viability ratio: 1.47

How did the screen score SPAG9 (sperm associated antigen 9)?
CDH1-null / parental viability ratio: 0.82

What did the screen give for HYAL3 (hyaluronidase 3)?
CDH1-null / parental viability ratio: 1.29

Which result is listed for CREG2 (cellular repressor of E1A stimulated genes 2)?
CDH1-null / parental viability ratio: 0.97

With MACC1 (MET transcriptional regulator MACC1), what was measured?
CDH1-null / parental viability ratio: 0.95

What did the screen give for PRKAR1B (protein kinase cAMP-dependent type I regulatory subunit beta)?
CDH1-null / parental viability ratio: 1.02

With PIEZO2 (piezo type mechanosensitive ion channel component 2), what was measured?
CDH1-null / parental viability ratio: 1.01

With SEBOX (SEBOX homeobox), what was measured?
CDH1-null / parental viability ratio: 1.18

How did the screen score CROT (carnitine O-octanoyltransferase)?
CDH1-null / parental viability ratio: 1.05

Which result is listed for APOBEC3H (apolipoprotein B mRNA editing enzyme catalytic subunit 3H)?
CDH1-null / parental viability ratio: 1.02

With VCL (vinculin), what was measured?
CDH1-null / parental viability ratio: 0.93
